Some results were stated once for a whole list of compounds, not compound by compound. At least one structure is not confirmed: it was looked up by name or label, or the drawing left a doubt.
Test: Hygroscopicity test by Dynamic Moisture Sorption Gravimetry (DVS 1000)
Type: physicochemical
Conditions: at 90% RH printed for mesylate salt
Text: The water uptake of succinate and fumarate salts of S,S-reboxetine was investigated by submitting a sample of such salts to a hygroscopicity test by means of a DVS 1000 (SMS) according to the principle of Dynamic Moisture Sorption Gravimetry (DMSG). The apparatus is a “controlled atmosphere microbalance” where the weighed sample is exposed to programmed variations of the relative humidity (RH) at a constant and controlled temperature. The measured parameters (weight, time and RH), reported in Excel worksheets, allowed obtaining hygroscopicity curves over the tested RH range. Multiple sorption/desorption cycles between 0% and 90% RH were performed at 25° C. Progressive variations of RH were of 10%; they were operated by the software at the equilibration of the sample weight. This condition was defined at a constant rate of percent weight variation 0.005%/min (average of 5 minutes survey). The experimental results were reported in the DVS Isotherm Reports and Isotherm Plots.
The obtained results are summarized in the Table V, reporting the water uptake expressed as percent change in mass, and FIG. 4.

In the case of CCOc1ccccc1O[C@@H](c1ccccc1)[C@@H]1CNCCO1.O=C(O)/C=C/C(=O)O (single isomer, unassigned) [Fumarate salt, Reboxetine S,S Enantiomer Fumarate Salt], the “Amount of water adsorbed (uptake) in hygroscopicity test” value is reported as “below 0.5%”.

Source: patent publication US20090291953A1, “PHAR[…] OF REBOXETINE” (Pfizer Inc, priority 2002, published 2009)
